Measured values as given in patent publication US20050053592A1.
Results are given in words; binding and its absence hold for the method and conditions named. For some assays here: In cells and extracts the contact can be indirect. Some entries that bind do so weakly or less than the wild type. For some assays here: Sequences can lack the tags named with a protein.

How the values were obtained:
[1] = target: T1, C-terminal half of Sav (residue 362-607) (Drosophila) (UniProt Q9VCR6); assay: yeast two-hybrid screen, Hpo bait (FIG. 6A legend)
T1 sequence (looked up): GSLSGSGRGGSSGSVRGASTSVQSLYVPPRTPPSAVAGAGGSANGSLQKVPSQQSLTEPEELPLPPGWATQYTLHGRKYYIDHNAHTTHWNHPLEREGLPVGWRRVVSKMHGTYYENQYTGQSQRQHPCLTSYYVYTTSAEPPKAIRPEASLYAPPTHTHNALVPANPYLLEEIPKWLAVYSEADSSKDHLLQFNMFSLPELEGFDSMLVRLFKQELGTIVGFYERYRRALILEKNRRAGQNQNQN

[2] = target: T1, C-terminal half of Sav (residue 362-607) (Drosophila); assay: yeast two-hybrid screen (CytoTrap), Hpo C-terminal portion as bait, Drosophila cDNA library
[3] = target: T2, C-terminal portion of Hpo (residue 474-669), Sav-interacting Hpo clones (Drosophila) (UniProt Q8T0S6); assay: yeast two-hybrid screen (CytoTrap), Sav C-terminal half as bait, Drosophila cDNA library
T2 sequence: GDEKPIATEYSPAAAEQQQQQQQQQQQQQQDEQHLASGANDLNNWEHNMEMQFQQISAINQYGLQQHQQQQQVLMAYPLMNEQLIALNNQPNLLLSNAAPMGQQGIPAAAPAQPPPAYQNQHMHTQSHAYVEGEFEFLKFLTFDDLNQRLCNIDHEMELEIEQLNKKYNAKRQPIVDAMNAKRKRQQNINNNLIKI

[4] = target: T2, C-terminal portion of Hpo (residue 474-669), Sav-interacting Hpo clones (Drosophila); assay: yeast two-hybrid screen, Sav bait (FIG. 6A legend)
[5] = target: T3, endogenous Hpo protein (Hippo) from S2 cell extracts (Drosophila) (UniProt Q8T0S6); assay: GST pull-down from S2 cell lysates, blot with anti-Hpo antibody
T3 sequence: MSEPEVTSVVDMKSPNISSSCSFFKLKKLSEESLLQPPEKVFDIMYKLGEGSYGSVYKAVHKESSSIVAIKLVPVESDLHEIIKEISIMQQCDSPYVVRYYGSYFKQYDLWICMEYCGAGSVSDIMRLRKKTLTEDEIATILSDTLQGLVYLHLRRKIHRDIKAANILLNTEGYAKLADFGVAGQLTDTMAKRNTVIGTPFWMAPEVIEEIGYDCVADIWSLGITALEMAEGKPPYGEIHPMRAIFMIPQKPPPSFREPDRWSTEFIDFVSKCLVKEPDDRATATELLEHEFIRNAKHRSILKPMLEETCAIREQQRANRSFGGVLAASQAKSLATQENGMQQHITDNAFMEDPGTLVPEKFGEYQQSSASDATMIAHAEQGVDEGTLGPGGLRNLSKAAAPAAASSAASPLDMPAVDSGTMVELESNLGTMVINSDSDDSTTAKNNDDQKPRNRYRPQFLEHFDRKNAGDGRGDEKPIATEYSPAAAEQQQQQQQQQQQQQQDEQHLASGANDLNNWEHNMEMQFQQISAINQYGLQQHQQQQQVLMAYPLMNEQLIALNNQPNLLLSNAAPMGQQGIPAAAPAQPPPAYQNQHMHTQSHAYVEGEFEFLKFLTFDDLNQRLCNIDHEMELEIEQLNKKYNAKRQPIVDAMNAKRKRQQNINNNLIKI

[6] = target: T3, endogenous Hpo protein (Hippo) from S2 cell extracts (Drosophila); assay: GST pull-down from S2 cell lysates (FIG. 6B legend)
[7] = target: T4, Myc-tagged Hpo (Drosophila) (UniProt Q8T0S6); assay: co-immunoprecipitation from S2 cells
T4 sequence: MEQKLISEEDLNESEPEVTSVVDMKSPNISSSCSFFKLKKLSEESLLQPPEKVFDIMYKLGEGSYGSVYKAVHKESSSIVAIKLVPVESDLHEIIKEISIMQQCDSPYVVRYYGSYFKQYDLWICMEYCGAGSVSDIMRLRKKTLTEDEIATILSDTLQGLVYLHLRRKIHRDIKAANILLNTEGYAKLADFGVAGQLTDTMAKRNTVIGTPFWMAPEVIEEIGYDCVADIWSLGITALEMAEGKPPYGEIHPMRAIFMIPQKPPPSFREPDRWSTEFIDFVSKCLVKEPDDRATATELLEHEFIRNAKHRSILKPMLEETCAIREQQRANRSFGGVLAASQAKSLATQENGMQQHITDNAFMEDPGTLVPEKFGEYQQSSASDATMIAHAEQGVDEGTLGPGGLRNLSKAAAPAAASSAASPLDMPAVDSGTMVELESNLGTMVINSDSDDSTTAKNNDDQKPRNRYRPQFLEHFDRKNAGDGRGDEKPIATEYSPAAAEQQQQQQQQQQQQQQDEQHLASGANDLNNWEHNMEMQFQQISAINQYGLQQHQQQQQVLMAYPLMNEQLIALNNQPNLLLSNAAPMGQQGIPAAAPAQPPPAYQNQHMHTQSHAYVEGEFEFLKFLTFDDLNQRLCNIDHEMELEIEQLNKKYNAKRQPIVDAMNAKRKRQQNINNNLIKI

[8] = target: T4, Myc-tagged Hpo (Drosophila); assay: co-immunoprecipitation from S2 cells (FIG. 7F legend)

B1: non-catalytic C-terminal portion of Hpo (yeast two-hybrid bait) (protein)
chain: ANRSFGGVLAASQAKSLATQENGMQQHITDNAFMEDPGTLVPEKFGEYQQSSASDATMIAHAEQGVDEGTLGPGGLRNLSKAAAPAAASSAASPLDMPAVDSGTMVELESNLGTMVINSDSDDSTTAKNNDDQKPRNRYRPQFLEHFDRKNAGDGRGDEKPIATEYSPAAAEQQQQQQQQQQQQQQDEQHLASGANDLNNWEHNMEMQFQQISAINQYGLQQHQQQQQVLMAYPLMNEQLIALNNQPNLLLSNAAPMGQQGIPAAAPAQPPPAYQNQHMHTQSHAYVEGEFEFLKFLTFDDLNQRLCNIDHEMELEIEQLNKKYNAKRQPIVDAMNAKRKRQQNINNNLIKI
- binding [1]: binds
- binding [2]: binds

B2: C-terminal half of Sav (residue 362-607) (protein, Drosophila, UniProt Q9VCR6 362-607, looked up)
chain: GSLSGSGRGGSSGSVRGASTSVQSLYVPPRTPPSAVAGAGGSANGSLQKVPSQQSLTEPEELPLPPGWATQYTLHGRKYYIDHNAHTTHWNHPLEREGLPVGWRRVVSKMHGTYYENQYTGQSQRQHPCLTSYYVYTTSAEPPKAIRPEASLYAPPTHTHNALVPANPYLLEEIPKWLAVYSEADSSKDHLLQFNMFSLPELEGFDSMLVRLFKQELGTIVGFYERYRRALILEKNRRAGQNQNQN
- binding [3]: binds
- binding [4]: binds

B3: GST fusion protein containing full-length Sav (protein, UniProt Q9VCR6 1-608, looked up, not shown: a dimerising Fc or GST)
chain: MNYLTILLCNRKPTMLSRRNKEKSQHKEGVVGKYMKKDTPPDISVINVWSDQRAKKKSLQRCASTSPSCEFHPRSSSTSRNTYSCTDSQPDYYHARRAQSQMPLQQHSHSHPHSLPHPSHPHVRSHPPLPPHQFRASSNQLSQNSSNYVNFEQIERMRRQQSSPLLQTTSSPAPGAGGFQRSYSTTQRQHHPHLGGDSYDADQGLLSASYANMLQLPQRPHSPAHYAVPPQQQQHPQIHQQHASTPFGSTLRFDRAAMSIRERQPRYQPTSSPMQQQQQQQQQQQQQLQHTQLAAHLGGSYSSDSYPIYENPSRVISMRATQSQRSESPIYSNTTASSATLAVVPQHHHQGHLAVPSGSGGGSLSGSGRGGSSGSVRGASTSVQSLYVPPRTPPSAVAGAGGSANGSLQKVPSQQSLTEPEELPLPPGWATQYTLHGRKYYIDHNAHTTHWNHPLEREGLPVGWRRVVSKMHGTYYENQYTGQSQRQHPCLTSYYVYTTSAEPPKAIRPEASLYAPPTHTHNALVPANPYLLEEIPKWLAVYSEADSSKDHLLQFNMFSLPELEGFDSMLVRLFKQELGTIVGFYERYRRALILEKNRRAGQNQNQNQ
- binding [5]: binds
- binding [6]: binds

B4: Flag-tagged Sav (wild-type) (protein, Drosophila)
chain: MDYKDDDDKNYLTILLCNRKPTMLSRRNKEKSQHKEGVVGKYMKKDTPPDISVINVWSDQRAKKKSLQRCASTSPSCEFHPRSSSTSRNTYSCTDSQPDYYHARRAQSQMPLQQHSHSHPHSLPHPSHPHVRSHPPLPPHQFRASSNQLSQNSSNYVNFEQIERMRRQQSSPLLQTTSSPAPGAGGFQRSYSTTQRQHHPHLGGDSYDADQGLLSASYANMLQLPQRPHSPAHYAVPPQQQQHPQIHQQHASTPFGSTLRFDRAAMSIRERQPRYQPTSSPMQQQQQQQQQQQQQLQHTQLAAHLGGSYSSDSYPIYENPSRVISMRATQSQRSESPIYSNTTASSATLAVVPQHHHQGHLAVPSGSGGGSLSGSGRGGSSGSVRGASTSVQSLYVPPRTPPSAVAGAGGSANGSLQKVPSQQSLTEPEELPLPPGWATQYTLHGRKYYIDHNAHTTHWNHPLEREGLPVGWRRVVSKMHGTYYENQYTGQSQRQHPCLTSYYVYTTSAEPPKAIRPEASLYAPPTHTHNALVPANPYLLEEIPKWLAVYSEADSSKDHLLQFNMFSLPELEGFDSMLVRLFKQELGTIVGFYERYRRALILEKNRRAGQNQNQN
- binding [7]: binds
- binding [8]: binds
